This assay deals with Human GUCY2C full length (SEQ ID NO: 224), recombinant protein (human) (UniProt P25092). The assay can be described thus: SPR, IgG captured by anti-human Fc. In general terms: SPR reads the build-up and loss of mass on a sensor chip optically.

The chains behind the UniProt entries cited, without tags or fusion partners. Where a name states a change or a piece, a line headed by the entry shows the natural chain unless it says otherwise.
UniProt P25092: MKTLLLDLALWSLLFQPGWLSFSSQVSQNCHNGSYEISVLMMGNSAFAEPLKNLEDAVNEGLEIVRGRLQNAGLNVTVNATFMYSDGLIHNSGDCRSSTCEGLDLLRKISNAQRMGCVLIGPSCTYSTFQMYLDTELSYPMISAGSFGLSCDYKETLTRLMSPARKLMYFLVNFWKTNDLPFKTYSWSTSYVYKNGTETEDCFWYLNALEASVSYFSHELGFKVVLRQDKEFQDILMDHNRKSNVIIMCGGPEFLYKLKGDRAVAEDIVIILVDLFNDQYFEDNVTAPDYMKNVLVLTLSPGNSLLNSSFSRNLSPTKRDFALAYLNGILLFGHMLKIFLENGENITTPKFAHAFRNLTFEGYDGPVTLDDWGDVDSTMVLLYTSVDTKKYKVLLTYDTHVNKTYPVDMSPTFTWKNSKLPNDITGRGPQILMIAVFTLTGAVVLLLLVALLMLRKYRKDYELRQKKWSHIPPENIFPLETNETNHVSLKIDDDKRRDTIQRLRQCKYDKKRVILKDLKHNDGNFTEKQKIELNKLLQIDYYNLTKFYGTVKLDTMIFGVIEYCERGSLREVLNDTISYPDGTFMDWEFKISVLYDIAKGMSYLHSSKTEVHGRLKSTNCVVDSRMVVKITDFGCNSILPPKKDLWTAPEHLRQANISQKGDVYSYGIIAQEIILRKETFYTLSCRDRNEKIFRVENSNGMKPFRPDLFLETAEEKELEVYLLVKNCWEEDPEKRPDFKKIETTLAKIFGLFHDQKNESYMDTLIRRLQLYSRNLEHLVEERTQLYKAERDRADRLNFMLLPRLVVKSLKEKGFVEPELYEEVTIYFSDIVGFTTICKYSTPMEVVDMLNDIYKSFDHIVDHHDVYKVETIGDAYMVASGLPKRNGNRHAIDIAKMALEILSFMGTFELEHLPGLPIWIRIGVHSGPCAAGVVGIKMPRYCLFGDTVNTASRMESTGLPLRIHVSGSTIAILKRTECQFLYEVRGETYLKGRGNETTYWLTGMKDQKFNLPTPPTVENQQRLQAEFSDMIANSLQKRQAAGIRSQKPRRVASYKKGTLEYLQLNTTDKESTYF

Results on one molecule are retold here after patent US20230340151A1.

No constants are given. Whether binding was seen depends on the method and setting. Some entries that bind do so weakly or less than the wild type.

B1: GUCY2C-0486 (antibody, human IgG1, kappa, V domains shown)
VH: EVQLVESGGGLVQPGGSLRLSCAASGYTFTSYWMHWVRQAPGKGLEWIGEIKPSNGLTNVHEKFKNRFTISVDKAKNSAYLQMNSLRAEDTAVYYCTRTITTTEGYWFFDVWGQGTLVTVSS
VL: DIQLTQSPSSLSASVGDRVTITCRASESVDYYGSSLLQWYQQKPGKAPKLLIYAASKLASGVPSRFSGSGSGTDFTLTISSLQPEDFATYYCQQTRKAYTFGQGTKLEIKR
For the molecule B1, the binding entry is “binds”.
